From PubChem BioAssay AID602296 (Broad Institute, 2012)
Screen size: about 2,000 compounds; about 190 (9.5%) were called active. Inconclusive results (about 14%) are left out.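 Rule for the calls: active = fitted activation curve crossing 40% at a concentration no higher than the sample's top valid tested dose; inconclusive = flat fitted curve at 30% to 70% activation, or poor curve fit; inactive = signal decrease, flat curve within 30%, or the rest.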 Most of the strongest results are missing from this list.

experiment: sustained heat shock response element induction – cell-based, mouse, luciferase, cherry-pick, dose, confirmation (AID 602296); settings: NIH3T3-HGL HSF-1 response element luciferase, 48 h; at 26 µM (top of the series) unless noted;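 note: test compounds applied by themselves with no MG132 co-treatment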

SMILES	activation
Cc1cccn2c(=O)c3c(nc12)N1CCC(Cc2ccccc2)CC1C1(C3)C(=O)N(C)C(=O)N(C)C1=O (stereo not drawn)	inactive: 2.68%
Cc1oc(-c2ccccc2Cl)nc1CN1C(=O)CN=C(c2ccccc2)c2ccccc21	inactive: -57.7%
CSc1ccc(C(=O)C2CCCN(Cc3cccnc3)C2)cc1 (stereo not drawn)	inactive: -0.796%
CN1CC(C(=O)c2ccc(F)cc2)C(c2c(F)cccc2Cl)C1 (stereo not drawn)	inactive: 2.93%
CC(=O)c1ccccc1NC(=O)C1C2CCC(O2)C1C(=O)O (stereo not drawn)	inactive: -23.3%
COc1ccc(N2C(=O)NC(=O)/C(=C/c3ccc([N+](=O)[O-])s3)C2=O)cc1	inactive: 19.3%
Cc1ccsc1C(=O)C1CCCN(Cc2ccccc2O)C1 (stereo not drawn)	inactive: -13.8%
COc1cccc(C2C([N+](=O)[O-])=C(N)Oc3c2c(=O)oc2ccccc32)c1 (stereo not drawn)	inactive: 6.71%
Cn1c(O)c(C2=NNC(c3ccc(Cl)cc3)C2)c(=O)n(C)c1=O (stereo not drawn)	inactive: -15.9%
CCOc1cccc(C2NCc3ccccc3-n3cccc32)c1O (stereo not drawn)	inactive: -5.06%
C=CCN1CCc2cccc3c2[C@H]1Cc1ccc(O)c(O)c1-3	inactive: -45.2%
CCCc1[nH]nc2c1C1(C(=O)N(Cc3ccccc3)c3ccccc31)C(C(=O)OC)=C(N)O2 (stereo not drawn)	inactive: -35.4%
COc1ccccc1N1CCN(Cc2cccc(OC)c2O)CC1	inactive: -9.22%
COc1ccc(SCC2CN(C)CCC2c2ccc(F)cc2)cc1 (stereo not drawn)	inactive: -48.2%
COc1cc(/C=C/[N+](=O)[O-])ccc1O	inactive: -12.9% [at 6 µM]
O=c1[nH]c(=O)n(-c2ccccc2F)c(O)c1C=NCCC1=CCCCC1	inactive: -0.09%
CC(Cc1ccccc1)NCC(=O)Nc1cc(N(C)C)nc2ccccc12 (stereo not drawn)	inactive: -30.9%

SMILES	activation
COc1ccc(C(=O)C2CCCN(Cc3ccc(C)s3)C2)c(OC)c1 (stereo not drawn)	inactive: -26.9%
C/C1=C\[C@@H](C)C/C=C/[C@H]2[C@@H]3O[C@]3(C)[C@@H](C)[C@H]3[C@H](Cc4c[nH]c5ccccc45)NC(=O)[C@]32C(=O)/C=C/C(=O)[C@@H]1O	inactive: -103%
CCC(=NCc1ccco1)c1c(O)n(C2CCCCC2)c(=O)[nH]c1=O	inactive: -18.8%
COC(=O)N1C(c2ccccc2)C1c1ccccc1 (stereo not drawn)	inactive: 5.74%
COc1cc(O)cc2c1C(=O)OC(C)CCCC(=O)CCC/C=C\2 (stereo not drawn)	inactive: -21.9%
COc1ccc(N=Cc2c(O)n(Cc3ccccc3)c(=S)[nH]c2=O)c(OC)c1	inactive: 3.27%
CCOc1ccc(CN(CCCl)CCCl)cc1C(=O)OC	inactive: 5.88%
Cc1cc(=O)[nH]c(SCc2nc3ccccc3c(=O)n2-c2ccccc2C)n1	inactive: -1.95%
CN(C)CCc1nc2ccccc2c(=O)n1-c1ccccc1	inactive: 11.7%
C=CCNC(=O)c1c(N)n(Cc2ccco2)c2nc3ccccc3nc12	inactive: -21.2%
O=C(CF)NC(NC(=S)Nc1ccccc1O)C(Cl)(Cl)Cl (stereo not drawn)	inactive: -11.6%
CCCCn1c(C)c(C(=O)OCC)c2c(CN3CCOCC3)c(O)ccc21	inactive: -16.6%
COc1ccc(CCNCc2ccc(Br)cc2)cc1OC	inactive: -20.7%
O=c1cccc2n1CC1CC2CN(c2nc(N3CCCCC3)nc(N3CCCCC3)n2)C1 (stereo not drawn)	inactive: -3.61%
COc1ccc2ccc(O)c(CN3CC=C(c4ccccc4)CC3)c2c1	inactive: -7.55%
Fc1cccc(F)c1CN1CCN(c2ccc(Cl)cc2)CC1	inactive: 5.26%

Given bar-delimited: part of the list above.
SMILES | activation
COc1cc(O)cc2c1C(=O)OC(C)CCCC(=O)CCC/C=C\2 (stereo not drawn) | inactive: -21.9%
COc1ccc2ccc(O)c(CN3CC=C(c4ccccc4)CC3)c2c1 | inactive: -7.55%
